The values that follow come from the supplement of paper PMC10849652.

Protein sequences, listed by entry. Tags and fused reporters are not part of them. Lines headed by an entry give the natural chain unless they say otherwise; changes in a name come on top.
UniProt O95613: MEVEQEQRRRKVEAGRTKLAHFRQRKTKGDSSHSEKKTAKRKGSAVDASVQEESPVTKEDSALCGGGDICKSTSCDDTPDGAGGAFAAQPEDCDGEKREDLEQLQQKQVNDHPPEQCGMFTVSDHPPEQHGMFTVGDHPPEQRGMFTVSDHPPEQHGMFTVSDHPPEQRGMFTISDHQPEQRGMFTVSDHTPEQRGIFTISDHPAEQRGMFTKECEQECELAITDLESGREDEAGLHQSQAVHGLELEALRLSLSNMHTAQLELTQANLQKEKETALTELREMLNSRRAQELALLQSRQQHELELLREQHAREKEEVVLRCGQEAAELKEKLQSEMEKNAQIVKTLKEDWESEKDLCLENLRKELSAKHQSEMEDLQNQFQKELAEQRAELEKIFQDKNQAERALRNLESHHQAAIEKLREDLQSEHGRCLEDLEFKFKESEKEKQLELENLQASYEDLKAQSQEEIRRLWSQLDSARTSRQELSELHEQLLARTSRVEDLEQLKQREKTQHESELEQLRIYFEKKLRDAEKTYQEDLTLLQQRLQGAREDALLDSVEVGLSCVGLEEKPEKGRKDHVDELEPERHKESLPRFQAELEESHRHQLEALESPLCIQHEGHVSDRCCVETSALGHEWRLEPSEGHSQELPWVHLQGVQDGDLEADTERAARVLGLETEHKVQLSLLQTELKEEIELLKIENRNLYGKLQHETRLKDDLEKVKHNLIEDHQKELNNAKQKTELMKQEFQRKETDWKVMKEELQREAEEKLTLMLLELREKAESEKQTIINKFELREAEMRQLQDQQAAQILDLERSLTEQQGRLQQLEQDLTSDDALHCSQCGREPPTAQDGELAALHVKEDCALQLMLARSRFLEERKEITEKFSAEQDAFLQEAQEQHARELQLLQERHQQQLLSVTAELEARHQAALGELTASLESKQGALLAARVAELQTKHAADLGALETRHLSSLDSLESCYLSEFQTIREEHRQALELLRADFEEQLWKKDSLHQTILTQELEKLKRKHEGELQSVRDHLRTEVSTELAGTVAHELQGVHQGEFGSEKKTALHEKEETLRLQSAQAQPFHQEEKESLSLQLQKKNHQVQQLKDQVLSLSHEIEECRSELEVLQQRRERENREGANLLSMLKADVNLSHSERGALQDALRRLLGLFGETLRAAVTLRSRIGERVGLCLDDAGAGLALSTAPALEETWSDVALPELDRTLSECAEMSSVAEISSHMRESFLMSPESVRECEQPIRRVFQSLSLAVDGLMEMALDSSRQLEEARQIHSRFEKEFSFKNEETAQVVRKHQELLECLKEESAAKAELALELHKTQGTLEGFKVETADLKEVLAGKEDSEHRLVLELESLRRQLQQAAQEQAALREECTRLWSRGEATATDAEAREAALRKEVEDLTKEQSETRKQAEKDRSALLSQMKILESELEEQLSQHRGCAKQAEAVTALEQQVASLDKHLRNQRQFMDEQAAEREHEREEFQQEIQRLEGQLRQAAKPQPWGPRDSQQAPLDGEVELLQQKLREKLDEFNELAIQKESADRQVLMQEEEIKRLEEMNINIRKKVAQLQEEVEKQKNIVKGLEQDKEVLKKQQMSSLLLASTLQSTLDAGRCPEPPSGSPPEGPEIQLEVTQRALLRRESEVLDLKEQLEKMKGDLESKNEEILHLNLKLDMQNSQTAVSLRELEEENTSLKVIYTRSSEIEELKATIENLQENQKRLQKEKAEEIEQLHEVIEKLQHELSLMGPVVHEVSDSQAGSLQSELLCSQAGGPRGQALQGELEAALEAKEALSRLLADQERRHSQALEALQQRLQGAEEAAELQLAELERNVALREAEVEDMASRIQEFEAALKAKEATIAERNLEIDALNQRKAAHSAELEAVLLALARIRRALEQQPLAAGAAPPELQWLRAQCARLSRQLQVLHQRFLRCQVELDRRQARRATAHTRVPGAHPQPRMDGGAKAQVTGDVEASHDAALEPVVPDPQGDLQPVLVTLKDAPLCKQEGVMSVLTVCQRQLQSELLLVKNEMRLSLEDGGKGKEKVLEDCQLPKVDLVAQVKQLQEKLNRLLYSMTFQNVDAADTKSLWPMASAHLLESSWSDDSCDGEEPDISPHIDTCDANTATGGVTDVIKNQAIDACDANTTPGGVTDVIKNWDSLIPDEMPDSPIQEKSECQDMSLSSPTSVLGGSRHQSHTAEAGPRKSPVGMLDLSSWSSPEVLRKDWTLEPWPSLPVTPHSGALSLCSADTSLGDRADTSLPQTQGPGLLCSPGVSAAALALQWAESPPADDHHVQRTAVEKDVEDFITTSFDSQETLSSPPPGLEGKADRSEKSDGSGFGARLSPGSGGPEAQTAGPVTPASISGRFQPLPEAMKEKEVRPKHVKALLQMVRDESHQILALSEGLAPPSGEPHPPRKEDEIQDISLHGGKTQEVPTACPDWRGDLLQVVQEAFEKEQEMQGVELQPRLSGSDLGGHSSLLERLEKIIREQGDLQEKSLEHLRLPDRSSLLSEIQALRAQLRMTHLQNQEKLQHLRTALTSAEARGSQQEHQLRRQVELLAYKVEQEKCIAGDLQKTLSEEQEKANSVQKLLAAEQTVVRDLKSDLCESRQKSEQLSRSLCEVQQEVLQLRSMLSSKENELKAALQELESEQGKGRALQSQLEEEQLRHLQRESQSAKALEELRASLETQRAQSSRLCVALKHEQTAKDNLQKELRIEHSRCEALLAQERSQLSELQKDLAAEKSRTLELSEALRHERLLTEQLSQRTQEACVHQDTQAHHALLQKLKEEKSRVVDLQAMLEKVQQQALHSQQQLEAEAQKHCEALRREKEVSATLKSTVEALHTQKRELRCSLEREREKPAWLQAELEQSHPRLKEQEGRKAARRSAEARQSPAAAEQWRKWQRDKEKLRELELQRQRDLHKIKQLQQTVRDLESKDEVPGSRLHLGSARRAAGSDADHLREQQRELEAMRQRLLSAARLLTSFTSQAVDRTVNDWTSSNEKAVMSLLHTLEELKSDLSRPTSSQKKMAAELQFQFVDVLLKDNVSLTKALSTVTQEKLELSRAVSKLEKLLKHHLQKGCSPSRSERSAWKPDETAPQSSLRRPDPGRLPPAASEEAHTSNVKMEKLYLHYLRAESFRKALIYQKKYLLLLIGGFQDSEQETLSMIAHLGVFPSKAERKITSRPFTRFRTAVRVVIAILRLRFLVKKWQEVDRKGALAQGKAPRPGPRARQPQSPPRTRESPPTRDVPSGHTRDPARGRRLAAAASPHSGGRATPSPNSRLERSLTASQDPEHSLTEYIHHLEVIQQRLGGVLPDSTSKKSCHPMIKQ
UniProt P11498: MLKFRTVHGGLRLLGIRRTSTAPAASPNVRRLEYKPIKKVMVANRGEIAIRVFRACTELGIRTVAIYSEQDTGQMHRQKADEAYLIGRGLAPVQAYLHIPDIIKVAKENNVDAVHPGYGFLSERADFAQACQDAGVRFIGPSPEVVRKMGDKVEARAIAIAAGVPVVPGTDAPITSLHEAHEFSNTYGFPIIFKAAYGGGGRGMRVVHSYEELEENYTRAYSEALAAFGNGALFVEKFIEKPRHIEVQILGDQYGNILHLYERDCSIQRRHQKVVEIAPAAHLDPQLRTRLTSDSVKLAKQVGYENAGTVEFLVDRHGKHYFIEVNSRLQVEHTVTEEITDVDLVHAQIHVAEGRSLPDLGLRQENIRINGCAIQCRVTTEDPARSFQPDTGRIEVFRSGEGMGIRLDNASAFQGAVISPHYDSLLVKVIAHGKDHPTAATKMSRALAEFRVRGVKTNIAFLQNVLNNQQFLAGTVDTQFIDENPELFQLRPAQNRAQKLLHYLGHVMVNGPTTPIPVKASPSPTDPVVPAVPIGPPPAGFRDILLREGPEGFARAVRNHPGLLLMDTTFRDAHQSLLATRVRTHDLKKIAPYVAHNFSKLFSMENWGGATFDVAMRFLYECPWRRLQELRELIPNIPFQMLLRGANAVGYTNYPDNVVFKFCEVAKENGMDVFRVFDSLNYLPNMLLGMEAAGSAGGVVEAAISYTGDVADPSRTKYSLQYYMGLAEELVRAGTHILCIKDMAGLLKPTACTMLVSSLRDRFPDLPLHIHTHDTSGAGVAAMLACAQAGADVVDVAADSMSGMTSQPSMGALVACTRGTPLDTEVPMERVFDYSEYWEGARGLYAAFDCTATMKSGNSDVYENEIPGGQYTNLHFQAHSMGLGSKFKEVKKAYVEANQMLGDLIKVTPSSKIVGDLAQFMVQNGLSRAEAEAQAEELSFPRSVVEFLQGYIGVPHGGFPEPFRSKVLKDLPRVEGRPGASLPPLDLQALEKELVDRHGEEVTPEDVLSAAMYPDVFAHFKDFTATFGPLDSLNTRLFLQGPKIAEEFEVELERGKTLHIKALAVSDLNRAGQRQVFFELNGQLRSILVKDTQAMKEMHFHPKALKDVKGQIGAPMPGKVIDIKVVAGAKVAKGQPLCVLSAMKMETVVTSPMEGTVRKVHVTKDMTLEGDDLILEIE
UniProt O60925, whole entry, looked up: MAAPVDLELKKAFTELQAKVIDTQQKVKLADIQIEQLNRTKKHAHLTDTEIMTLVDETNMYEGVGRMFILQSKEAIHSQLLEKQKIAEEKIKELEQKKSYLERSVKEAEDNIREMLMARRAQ
UniProt Q9Y5B6: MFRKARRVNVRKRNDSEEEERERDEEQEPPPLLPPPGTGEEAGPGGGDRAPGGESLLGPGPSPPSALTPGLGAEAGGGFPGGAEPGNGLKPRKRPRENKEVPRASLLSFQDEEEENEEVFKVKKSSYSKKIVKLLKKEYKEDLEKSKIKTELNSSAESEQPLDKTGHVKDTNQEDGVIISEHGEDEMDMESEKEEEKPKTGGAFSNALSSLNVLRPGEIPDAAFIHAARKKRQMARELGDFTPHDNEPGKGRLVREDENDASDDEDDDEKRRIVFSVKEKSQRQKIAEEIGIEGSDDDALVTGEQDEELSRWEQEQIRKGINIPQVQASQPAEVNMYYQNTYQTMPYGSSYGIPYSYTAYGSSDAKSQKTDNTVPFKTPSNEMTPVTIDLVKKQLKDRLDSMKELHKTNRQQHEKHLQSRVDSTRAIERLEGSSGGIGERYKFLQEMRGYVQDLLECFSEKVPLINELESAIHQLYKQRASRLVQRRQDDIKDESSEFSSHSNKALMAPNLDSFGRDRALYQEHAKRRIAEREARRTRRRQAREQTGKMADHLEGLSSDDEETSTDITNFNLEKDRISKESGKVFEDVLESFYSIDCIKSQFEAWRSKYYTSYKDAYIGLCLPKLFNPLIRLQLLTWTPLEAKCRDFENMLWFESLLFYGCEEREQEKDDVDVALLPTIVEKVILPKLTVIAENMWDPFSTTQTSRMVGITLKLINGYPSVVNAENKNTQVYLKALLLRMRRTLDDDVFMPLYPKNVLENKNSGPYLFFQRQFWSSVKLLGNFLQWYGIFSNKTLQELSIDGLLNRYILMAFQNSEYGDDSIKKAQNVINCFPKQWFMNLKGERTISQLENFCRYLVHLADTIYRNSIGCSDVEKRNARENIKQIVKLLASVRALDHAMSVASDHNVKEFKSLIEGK
UniProt O00151: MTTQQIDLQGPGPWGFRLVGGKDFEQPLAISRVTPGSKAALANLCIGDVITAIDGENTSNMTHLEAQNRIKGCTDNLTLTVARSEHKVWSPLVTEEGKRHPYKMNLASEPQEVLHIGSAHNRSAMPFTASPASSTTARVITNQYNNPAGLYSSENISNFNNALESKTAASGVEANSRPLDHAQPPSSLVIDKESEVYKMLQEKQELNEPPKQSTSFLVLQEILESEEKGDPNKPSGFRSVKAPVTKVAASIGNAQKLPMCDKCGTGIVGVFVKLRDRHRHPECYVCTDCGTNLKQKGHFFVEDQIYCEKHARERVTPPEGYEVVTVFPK
UniProt P11177, whole entry, looked up: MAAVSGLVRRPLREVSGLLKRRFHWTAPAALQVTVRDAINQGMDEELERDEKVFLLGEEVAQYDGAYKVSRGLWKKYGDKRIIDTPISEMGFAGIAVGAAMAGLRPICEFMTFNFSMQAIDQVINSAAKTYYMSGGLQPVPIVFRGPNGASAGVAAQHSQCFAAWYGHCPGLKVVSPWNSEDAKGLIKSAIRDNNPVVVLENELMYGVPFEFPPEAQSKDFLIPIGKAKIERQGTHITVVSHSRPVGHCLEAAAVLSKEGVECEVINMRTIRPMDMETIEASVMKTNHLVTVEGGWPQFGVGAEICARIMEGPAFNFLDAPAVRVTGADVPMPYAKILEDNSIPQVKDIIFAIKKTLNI

This is one part of the list.

Holding throughout (test): log2 fold change, soluble protein after heating vs DMSO (PISA); higher = thermal stabilisation; K562 lysate, 10 uM; active = over 0.2 and 3.5 SD of the protein, either way, in both replicates (recomputed)
Compound in assay [1]: NCC(=O)Nc1ccc(-n2nc(C(F)(F)F)cc2-c2ccc3c(ccc4ccccc43)c2)cc1
The essentials:
(§1)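 Pellets of K562 cells were dounce-homogenised in PBS pH 7.4 with 1 mM MgCl2, and the crude extract was held at 1 mg/mL protein for a 30 min treatment with 10 μM compound. Aliquots were heated for 3 min over 48°C-58°C and pooled before NP-40 was added to 0.5% at 4°C. The supernatant from 21,000xg for 90 min was quantified by TMTpro 16plex LC-MS/MS with channel sums equalised. Values are reported from duplicates as log-two fold change in thermal stability relative to solvent controls.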

Compound in assay [2]: O=C(CCCCCCC(=O)Nc1ccccc1)NO [vorinostat]
The essentials: as §1

Compound in assay [3]: O=C(O)c1ccc2c(c1)nc(Nc1cccc(Cl)c1)c1ccncc12 [silmitasertib]
The essentials:
as §1

Compound in assay [4]: O=C1NC(=O)C(c2cnc3ccccn23)=C1c1cn2c3c(cc(F)cc13)CN(C(=O)N1CCCCC1)CC2
The essentials:
as §1

Compound in assay [5]: c1cn2cc(-c3ccc4cn[nH]c4c3)nc(Nc3ccc(N4CCOCC4)cc3)c2n1 [entospletinib]
Summed up: as §1

Turning to PCNT (UniProt O95613), the log2 fold change is inactive: 0.011 in assay [1]; inactive: -0.012 in assay [2]; inactive: -0.018 in assay [3]; inactive: -0.029 in assay [4]; inactive: -0.028 in assay [5].

Turning to PC (UniProt P11498), the log2 fold change is inactive: -0.024 in assay [1]; inactive: -0.152 in assay [2]; inactive: 0.027 in assay [3]; inactive: -0.026 in assay [4]; inactive: -0.012 in assay [5].

Regarding PDCD6IP isoform 2 (UniProt Q8WUM4), the log2 fold change is inactive: -0.001 in assay [1]; active: -0.473 in assay [2]; inactive: 0.019 in assay [3]; inactive: -0.006 in assay [4]; inactive: 0.018 in assay [5].

Take PFDN1 (UniProt O60925): the log2 fold change in assay [1] was inactive: -0.048; in assay [2], inactive: 0.192; in assay [3], inactive: -0.003; in assay [4], inactive: 0.033; in assay [5], inactive: -0.089.

In the case of PAXBP1 (UniProt Q9Y5B6), the log2 fold change was inactive: 0.02 in assay [1]; inactive: -0.146 in assay [2]; inactive: -0.019 in assay [3]; inactive: -0.02 in assay [4]; inactive: -0.043 in assay [5].

Consider PDLIM1 (UniProt O00151), for which the log2 fold change in assay [1] was inactive: -0.002; in assay [2], inactive: 0.097; in assay [3], inactive: -0.011; in assay [4], inactive: 0.013; in assay [5] it was inactive: 0.016.

PDHB (UniProt P11177): the log2 fold change in assay [1] is inactive: -0.02; in assay [2] it was inactive: -0.084; in assay [3], inactive: 0.037; in assay [4] it was inactive: 0.024; in assay [5], inactive: -0.001.

For the target PDXDC1 (UniProt Q6P996), the log2 fold change is inactive: -0.041 in assay [1]; active: -0.233 in assay [2]; inactive: 0.038 in assay [3]; inactive: 0.018 in assay [4]; inactive: -0.019 in assay [5].

On to PCBP3 (UniProt P57721), for which the log2 fold change is inactive: 0.016 in assay [1]; active: -0.371 in assay [2]; inactive: 0.001 in assay [3]; inactive: -0.001 in assay [4]; inactive: 0.016 in assay [5].
